Data taken from US5223526A, “Pyrazole carboxanilide fungicides and use” (Monsanto Company, priority 1992, dated 1993).
Some results were stated once for a whole list of compounds, not compound by compound.

Test system: Botrytis
Assay: Field tests, vineyards
Type: in vivo
Conditions: 0.01 to 2.0 kg active ingredient per hectare

In the case of `Cn1cc(C(=O)Nc2ccccc2C2=CC(C)(C)CC(C)(C)C2)c(C(F)F)n1` [Example 121, 1H-pyrazole-4-carboxamide, 3-(difluoromethyl)-1-methyl-N-[2-(3,3,5,5-tetramethyl-1-cyclohexen-1-yl)phenyl]-], the “incidence of Botrytis compared to untreated fields” value is reported as “reduce the incidence of Botrytis compared to untreated fields”.
For `Cn1cc(C(=O)Nc2ccccc2C=C2CCCCC2)c(C(F)F)n1` [Example 116, 1H-pyrazole-4-carboxamide, N-[2-(cyclohexylidenemethyl)phenyl]-3-(difluoromethyl)-1-methyl-], the “incidence of Botrytis compared to untreated fields” value was “reduce the incidence of Botrytis compared to untreated fields”.
With `Cn1cc(C(=O)Nc2ccccc2C2CCCCC2)c(C(F)(F)F)n1` [Example 2, 1H-pyrazole-4-carboxamide, N-(2-cyclohexylphenyl)-1-methyl-3-(trifluoromethyl)-] the “incidence of Botrytis compared to untreated fields” value was “reduce the incidence of Botrytis compared to untreated fields”.
With `Cn1cc(C(=O)Nc2ccc(F)cc2C2CCCCC2)c(C(F)F)n1` [Example 11, 1H-pyrazole-4-carboxamide, N-(2-cyclohexyl-4-fluorophenyl)-3-(difluoromethyl)-1-methyl-] the “incidence of Botrytis compared to untreated fields” value was “reduce the incidence of Botrytis compared to untreated fields”.
In the case of `Cc1c(C(=O)Nc2ccccc2C2CCCCCC2)c(Cl)nn1C` [Example 105, 1H-py-razole-4-carboxamide, 3-chloro-N-(2-cycloheptylphenyl)-1,5-dimethyl-], the “incidence of Botrytis compared to untreated fields” value is reported as “reduce the incidence of Botrytis compared to untreated fields”.
With `Cn1cc(C(=O)Nc2ccccc2OCC2CCCC2)c(C(F)(F)F)n1` [Example 47, 1H-pyrazole-4-carboxamide, N-[2-(cyclopentylmethoxy)phenyl]-1-methyl-3-(trifluoromethyl)-] the “incidence of Botrytis compared to untreated fields” value was “reduce the incidence of Botrytis compared to untreated fields”.
In the case of `Cn1cc(C(=O)Nc2ccccc2SC2CCCCC2)c(C(F)(F)F)n1` [Example 45, 1H-pyrazole-4-carboxamide, N-[2-(cyclohexylthio)phenyl]-1-methyl-3-(trifluoromethyl)-], the “incidence of Botrytis compared to untreated fields” value is reported as “reduce the incidence of Botrytis compared to untreated fields”.
With `Cn1cc(C(=O)Nc2ccccc2C2CCCCC2)c(OC(F)F)n1` [Example 59] the “incidence of Botrytis compared to untreated fields” value was “reduce the incidence of Botrytis compared to untreated fields”.
For `Cn1cc(C(=O)Nc2ccccc2OCCC2CCCC2)c(C(F)F)n1` [Example 54, 1H-pyrazole-4-carboxamide, N-[2-(2-cyclopentylethoxy)phenyl]-3-(difluoromethyl)-1-methyl-], the “incidence of Botrytis compared to untreated fields” value was “reduce the incidence of Botrytis compared to untreated fields”.
`Cc1nn(C)c(Cl)c1C(=O)Nc1ccccc1[C@@H]1C[C@H]2CC[C@@H]1C2` (relative stereo) [Example 106, 1H-pyrazole-4-carboxamide, N-(2-bicyclo[2.2.1]hept-2-ylphenyl)-5-chloro-1,3-dimethyl-, exo-] was tested, and the “incidence of Botrytis compared to untreated fields” value was “reduce the incidence of Botrytis compared to untreated fields”.
In the case of `Cn1cc(C(=O)Nc2ccccc2C2CCCCC2)c(I)n1` [Example 56, 1H-pyrazole-4-carboxamide, N-[2-(cyclohexyl)phenyl]-3-iodo-1-methyl-], the “incidence of Botrytis compared to untreated fields” value is reported as “reduce the incidence of Botrytis compared to untreated fields”.
`Cn1cc(C(=O)Nc2ccccc2C2CCCCCC2)c(C(F)(F)Cl)n1` [Example 92, 1H-pyrazole-4-carboxamide, 3-(chlorodifluoromethyl)-N-(2-cycloheptylphenyl)-1-methyl-] was tested, and the “incidence of Botrytis compared to untreated fields” value was “reduce the incidence of Botrytis compared to untreated fields”.
For `Cn1cc(C(=O)Nc2ccccc2C2CCCCC2)c(C(F)F)n1` [Example 1, 1H-pyrazole-4-carboxamide, N-(2-cyclohexylphenyl)-3-(difluoromethyl)-1-methyl-], the “incidence of Botrytis compared to untreated fields” value was “reduce the incidence of Botrytis compared to untreated fields”.
For `Cc1ccc(OC2CCCCC2)c(NC(=O)c2cn(C)nc2C(F)F)c1` [Example 96, 1H-pyrazole-4-carboxamide, N-[2-(cyclohexyloxy)-5-methylphenyl]-3-(difluoromethyl)-1-methyl-], the “incidence of Botrytis compared to untreated fields” value was “reduce the incidence of Botrytis compared to untreated fields”.
For `Cn1cc(C(=O)Nc2ccccc2C2=CC(C)(C)CC(C)(C)C2)c(C(F)(F)F)n1` [Example 123, 1H-pyrazole-4-carboxamide, 1-methyl-N-[2-(3,3,5,5-tetramethyl-1-cyclohexen-1-yl)phenyl]-3-(trifluoromethyl)-], the “incidence of Botrytis compared to untreated fields” value was “reduce the incidence of Botrytis compared to untreated fields”.
In the case of `Cn1cc(C(=O)Nc2ccccc2[C@@H]2C[C@H]3CC[C@@H]2C3)c(Cl)n1` (relative stereo) [Example 52, 1H-pyrazole-4-carboxamide, N-(2-bicyclo[2.2.1]hept-2-ylphenyl)-3-chloro-1-methyl-, exo-], the “incidence of Botrytis compared to untreated fields” value is reported as “reduce the incidence of Botrytis compared to untreated fields”.
With `C=C(c1ccccc1NC(=O)c1cn(C)nc1C(F)(F)F)C1CCCC1` [Example 34, 1H-pyrazole-4-carboxamide, N-[2-(1-cyclopentylethenyl)phenyl]-1-methyl-3-(trifluoromethyl)-] the “incidence of Botrytis compared to untreated fields” value was “reduce the incidence of Botrytis compared to untreated fields”.
With `Cn1cc(C(=O)Nc2ccccc2CC2CCCCCC2)c(C(F)F)n1` [Example 145, 1H-pyrazole-4-carboxamide, 1-methyl-N-[2-(cycloheptylmethyl)-phenyl]-3-(difluoromethyl)-] the “incidence of Botrytis compared to untreated fields” value was “reduce the incidence of Botrytis compared to untreated fields”.
For `Cc1nn(C)cc1C(=O)Nc1ccccc1[C@@H]1C[C@H]2CC[C@@H]1C2` (relative stereo) [Example 71, 1H-pyrazole-4-carboxamide, N-(2-bicyclo[2.2.1]hept-2-ylphenyl)-1,3-dimethyl-, exo-], the “incidence of Botrytis compared to untreated fields” value was “reduce the incidence of Botrytis compared to untreated fields”.
With `Cn1cc(C(=O)Nc2ccccc2C2=CCCCCC2)c(C(F)(F)F)n1` [Example 112, 1H-pyrazole-4-carboxamide, N-[2-(1-cyclohepten-1-yl)phenyl]-1-methyl-3-(trifluoromethyl)-] the “incidence of Botrytis compared to untreated fields” value was “reduce the incidence of Botrytis compared to untreated fields”.
In the case of `Cn1cc(C(=O)Nc2ccccc2C2CCCCCC2)c(C(F)F)n1` [Example 9, 1H-pyrazole-4-carboxamide, N-(2-cycloheptylphenyl)-3-(difluoromethyl)-1-methyl-], the “incidence of Botrytis compared to untreated fields” value is reported as “reduce the incidence of Botrytis compared to untreated fields”.
With `Cn1cc(C(=O)Nc2ccccc2C2CCCCCC2)c(C(F)(F)F)n1` [Example 10, 1H-pyrazole-4-carboxamide, N-(2-cycloheptylphenyl)-1-methyl-3-(trifluoromethyl)-] the “incidence of Botrytis compared to untreated fields” value was “reduce the incidence of Botrytis compared to untreated fields”.
With `CCC1CC=C(c2ccccc2NC(=O)c2cn(C)nc2C(F)(F)F)CC1` (centres unmarked) [Example 126, 1H-pyrazole-4-carboxamide, N-[2-(4-ethyl-1-cyclohexen-1-yl)phenyl]-1-methyl-3-(trifluoromethyl)-] the “incidence of Botrytis compared to untreated fields” value was “reduce the incidence of Botrytis compared to untreated fields”.
In the case of `Cn1cc(C(=O)Nc2ccccc2C2CCCC2)c(C(F)(F)Cl)n1` [Example 90, 1H-pyrazole-4-carboxamide, 3-(chlorodifluoromethyl)-N-(2-cyclopentylphenyl)-1-methyl-], the “incidence of Botrytis compared to untreated fields” value is reported as “reduce the incidence of Botrytis compared to untreated fields”.
With `Cn1cc(C(=O)Nc2ccccc2C=C2CCCC2)c(C(F)F)n1` [Example 118, 1H-pyrazole-4-carboxamide, N-[2-(cyclopentylidenemethyl)phenyl]3-(difluoromethyl)-1-methyl-] the “incidence of Botrytis compared to untreated fields” value was “reduce the incidence of Botrytis compared to untreated fields”.
In the case of `Cn1cc(C(=O)Nc2ccccc2SC2CCCCC2)c(C(F)F)n1` [Example 44, 1H-pyrazole-4-carboxamide, N-[2-(cyclohexylthio)phenyl]-3-(difluoromethyl)-1-methyl-], the “incidence of Botrytis compared to untreated fields” value is reported as “reduce the incidence of Botrytis compared to untreated fields”.
With `CC1C=C(c2ccccc2NC(=O)c2cn(C)nc2C(F)(F)F)CC1` (centres unmarked) [Example 148, 1H-pyrazole-4-carboxamide, N-[2-(3-methyl-1-cyclopenten-1-yl)phenyl]-1-methyl-3-(trifluoromethyl)-] the “incidence of Botrytis compared to untreated fields” value was “reduce the incidence of Botrytis compared to untreated fields”.
With `Cn1nc(C(F)F)c(C(=O)Nc2ccccc2C2CCCCCC2)c1Cl` [Example 114, 1H-pyrazole-4-carboxamide, 5-chloro-N-(2-cycloheptylphenyl)-3-(difluoromethyl)-1-methyl-] the “incidence of Botrytis compared to untreated fields” value was “reduce the incidence of Botrytis compared to untreated fields”.
For `Cn1cc(C(=O)Nc2ccccc2O[C@H]2CC[C@@H](C)CC2)c(C(F)(F)F)n1` [Example 72, 1H-pyrazole-4-carboxamide, 1-methyl-N-[2-[(4-methylcyclohexyl)oxy]phenyl]-3-(trifluoromethyl)-, cis-], the “incidence of Botrytis compared to untreated fields” value was “reduce the incidence of Botrytis compared to untreated fields”.
With `Cn1cc(C(=S)Nc2ccccc2C2CCCCCC2)c(C(F)(F)F)n1` [Example 78, 1H-pyrazole-4-carbothioamide, N-(2-cycloheptylphenyl)-3-(trifluoromethyl)-1-methyl] the “incidence of Botrytis compared to untreated fields” value was “reduce the incidence of Botrytis compared to untreated fields”.
With `Cn1nc(C(F)(F)F)c(C(=O)Nc2ccccc2C2CCCCCC2)c1F` [Example 86, 1H-pyrazole-4-carboxamide, N-(2-cycloheptylphenyl)-5-fluoro-1-methyl-3-(trifluoromethyl)-] the “incidence of Botrytis compared to untreated fields” value was “reduce the incidence of Botrytis compared to untreated fields”.
With `Cn1cc(C(=O)Nc2ccccc2C2=CCOCC2)c(C(F)(F)F)n1` [Example 108, 1H-pyrazole-4-carboxamide, N-[2-(5,6-dihydro-2H-pyran-4-yl)phenyl]-1-methyl-3-(trifluoromethyl)-] the “incidence of Botrytis compared to untreated fields” value was “reduce the incidence of Botrytis compared to untreated fields”.
